For this experiment, the target named is insulin receptor (IR) (human (endogenous in HLF)) (UniProt P06213). Description: co-IP; lysate of HLF cells transfected with siControl or siTrip13 (IP lysis buffer, sonicated); 400 ug lysate precleared, insulin receptor antibody (GFP antibody as control) overnight at 4 C, protein G agarose, 5 washes, elution in glycine pH 3.5, western blot; for co-immunoprecipitation of Mad2 the Pierce Co-IP kit.

Protein sequences, listed by entry. Tags and fused reporters are not part of them. Residues count along the entry.
UniProt P06213, residues 28-1382: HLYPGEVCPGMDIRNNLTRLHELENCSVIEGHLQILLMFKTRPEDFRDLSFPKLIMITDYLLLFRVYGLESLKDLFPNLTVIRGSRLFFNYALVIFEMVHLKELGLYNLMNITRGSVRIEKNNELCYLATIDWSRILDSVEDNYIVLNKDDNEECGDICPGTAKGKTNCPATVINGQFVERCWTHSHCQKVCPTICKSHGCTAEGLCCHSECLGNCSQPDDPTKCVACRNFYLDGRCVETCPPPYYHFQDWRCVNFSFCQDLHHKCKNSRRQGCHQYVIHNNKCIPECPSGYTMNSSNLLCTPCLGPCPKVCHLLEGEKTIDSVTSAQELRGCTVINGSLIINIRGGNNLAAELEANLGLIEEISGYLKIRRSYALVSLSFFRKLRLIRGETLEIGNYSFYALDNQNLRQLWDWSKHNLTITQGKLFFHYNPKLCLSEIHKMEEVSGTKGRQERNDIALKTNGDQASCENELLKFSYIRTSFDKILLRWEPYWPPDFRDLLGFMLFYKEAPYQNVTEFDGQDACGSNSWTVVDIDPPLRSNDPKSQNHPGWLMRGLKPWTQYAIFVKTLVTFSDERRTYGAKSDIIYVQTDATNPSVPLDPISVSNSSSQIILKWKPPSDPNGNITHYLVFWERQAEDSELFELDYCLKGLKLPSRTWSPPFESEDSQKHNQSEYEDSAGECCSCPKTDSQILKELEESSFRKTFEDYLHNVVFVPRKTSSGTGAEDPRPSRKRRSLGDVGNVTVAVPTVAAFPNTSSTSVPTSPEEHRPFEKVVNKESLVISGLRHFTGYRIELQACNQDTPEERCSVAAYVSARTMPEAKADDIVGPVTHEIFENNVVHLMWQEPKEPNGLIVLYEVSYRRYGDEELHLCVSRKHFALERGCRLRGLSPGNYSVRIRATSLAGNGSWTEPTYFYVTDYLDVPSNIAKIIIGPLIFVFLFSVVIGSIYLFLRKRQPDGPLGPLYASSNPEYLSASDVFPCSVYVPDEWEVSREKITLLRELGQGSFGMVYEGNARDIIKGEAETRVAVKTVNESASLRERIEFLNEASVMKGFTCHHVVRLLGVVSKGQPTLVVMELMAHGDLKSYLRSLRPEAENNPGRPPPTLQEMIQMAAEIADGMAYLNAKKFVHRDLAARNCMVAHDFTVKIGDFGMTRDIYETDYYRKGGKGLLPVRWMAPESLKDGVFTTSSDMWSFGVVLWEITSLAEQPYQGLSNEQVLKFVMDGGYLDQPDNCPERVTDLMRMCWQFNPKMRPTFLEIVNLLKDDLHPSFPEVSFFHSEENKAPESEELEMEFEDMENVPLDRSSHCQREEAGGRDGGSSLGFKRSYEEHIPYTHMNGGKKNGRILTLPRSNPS
UniProt Q13257: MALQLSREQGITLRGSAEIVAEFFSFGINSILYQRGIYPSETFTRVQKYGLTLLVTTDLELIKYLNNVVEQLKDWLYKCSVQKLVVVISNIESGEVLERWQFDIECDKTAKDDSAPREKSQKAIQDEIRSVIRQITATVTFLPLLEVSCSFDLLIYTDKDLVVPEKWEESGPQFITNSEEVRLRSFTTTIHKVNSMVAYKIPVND

No constants are given. Whether binding was seen depends on the method and setting. Binding seen in cells or lysates may run through a third protein. Some binding calls cover weakened binding; strength is not graded here.

Turning to “mitotic arrest deficient 2 (Mad2) (from UniProt Q13257 1-205)”, the binding result is listed as “binds”.

Values taken from paper PMC9561781.
